Here are results for 27 substances from publication PMC10632401 (Nature Communications, 2023).

Strings that start with PEPTIDE1 are HELM notation: dots part the residues, brackets hold end groups and non-standard residues. A value given as a limit tells only on which side of the number the result lay.

The nature of this data set: general procedure: Fmoc solid-phase peptide synthesis; TentaGel S RAM (0.22 mmol/g); DIC/Oxyma. To be noted: whole synthesis; for final HPLC purity: 220 nm; for final HPLC purity / isolated yield: scale of the general procedure 5 µmol, TFA salt; for isolated mass: scale 5 µmol.

“PEPTIDE1{M.Y.L.K.K.F.L.A.L.K.N.S.L.K.K.L.S.P.F.K.C.A.V.K.S.W.L.K.K.C.A.E.V.T.F.Y.S.K.L.L.G.R.R.G.K.K.D.G.N.[am]}$$$$V2.0”: the “final HPLC purity” value is reported as greater than 90% and the isolated yield turned out to be 13%. Moreover, the isolated mass (15 x TFA salt) was found to be 4.67 mg.
“H-MCFFPRRKSKVKVKGGLCRLLFIFFKTTFCFKAKTKKEIKKGTGKKIVR-NH2 (cysteine pairing not given here)”: the “final HPLC purity” value is reported as no less than 99% and the isolated yield amounted to 8%. In addition, the isolated mass (17 x TFA salt) stood at 2.99 mg.
Consider “PEPTIDE1{M.M.K.I.R.N.T.L.R.S.R.K.E.A.V.R.R.I.F.S.L.R.R.R.S.V.F.T.E.M.A.R.A.F.R.R.F.K.A.R.[am]}$$$$V2.0”, for which the “final HPLC purity” value was 90% and the isolated yield worked out at 13%. The isolated mass (16 x TFA salt) is reported as 4.53 mg.
“PEPTIDE1{M.K.A.K.K.W.F.E.S.L.F.K.T.F.F.K.K.G.K.G.I.Y.P.K.S.S.F.E.K.E.K.K.T.D.K.K.K.K.F.G.G.W.V.W.F.K.K.[am]}$$$$V2.0”: the “final HPLC purity” value was no less than 99% and the isolated yield worked out at 8%. Besides, under “18 x TFA salt”, the isolated mass is listed as 2.94 mg.
In the case of “PEPTIDE1{M.K.Q.P.S.K.T.K.T.H.F.K.Y.F.L.L.F.L.K.S.V.K.K.V.A.G.F.K.K.K.K.K.K.Y.H.W.R.S.Y.K.E.G.S.C.F.R.K.R.T.[am]}$$$$V2.0”, the “final HPLC purity” value is given as no less than 99% and the isolated yield is on record as 6%. For the same substance, the isolated mass (21 x TFA salt) is 2.65 mg.
Regarding “H-MCFCFKAGPKICRGLQRKKKKFKYQTSFTKTGFGFLTKPKSPAR-NH2 (cysteine pairing not given here)”, the “final HPLC purity” value turned out to be 93% and the isolated yield is on record as 9%. Under “14 x TFA salt”, the isolated mass is listed as 2.98 mg.
Turning to “PEPTIDE1{M.L.F.G.S.R.A.K.K.Y.G.K.E.A.K.Q.E.K.S.F.Q.Y.P.K.S.S.F.V.A.C.K.K.K.W.K.R.S.K.H.F.F.K.T.F.K.K.K.V.S.[am]}$$$$V2.0”, the “final HPLC purity” value is listed as no less than 99% and the isolated yield amounted to 23%. The isolated mass (19 x TFA salt) came out at 9.40 mg.
“PEPTIDE1{M.R.N.F.F.K.K.T.R.L.K.Y.K.G.K.K.E.L.I.K.K.S.R.A.F.G.L.K.T.K.K.R.S.G.F.F.F.P.R.A.L.K.Y.E.E.E.F.Y.[am]}$$$$V2.0”: the “final HPLC purity” value is on record as no less than 99% and the isolated yield is listed as 9%. The isolated mass (18 x TFA salt) amounted to 3.49 mg.
Regarding “PEPTIDE1{M.W.I.K.W.K.K.P.R.K.W.G.R.R.L.K.K.K.E.K.E.E.L.G.D.Y.I.Y.L.Y.C.K.V.Y.R.L.F.G.F.L.P.Y.F.I.S.K.K.T.A.[am]}$$$$V2.0”, the “final HPLC purity” value is on record as no less than 99% and the isolated yield came to 7%. Further, the isolated mass (16 x TFA salt) is 2.73 mg.
In the case of “H-MGFGLWGLFHFKMNVPNLFKNGFIFLIIMIFTVWGLFFGKKKAYIEKFL-NH2”, the “final HPLC purity” value is given as 98% and the isolated yield was 4%. For the same substance, the isolated mass (8 x TFA salt) is 1.44 mg.
For “PEPTIDE1{M.A.I.R.I.I.G.R.L.A.R.V.R.A.R.V.V.A.R.V.R.S.R.L.L.A.D.D.P.P.E.D.L.L.R.V.A.R.R.R.K.G.R.R.W.L.F.L.S.[am]}$$$$V2.0”, the “final HPLC purity” value was greater than 97% and the isolated yield is 15%. In addition, the isolated mass (16 x TFA salt) is listed as 5.74 mg.
Turning to “PEPTIDE1{M.E.A.F.K.K.K.P.R.L.P.L.F.K.V.K.L.T.R.F.L.E.R.A.R.G.L.G.S.Y.R.I.F.E.F.F.K.K.F.G.V.K.K.F.V.S.S.L.R.[am]}$$$$V2.0”, the “final HPLC purity” value is recorded as no less than 97% and the isolated yield is recorded as 10%. Also, the isolated mass (16 x TFA salt) came to 3.69 mg.
Consider “PEPTIDE1{M.N.N.R.G.P.L.G.R.R.F.K.A.R.R.K.W.K.K.F.V.A.G.K.M.K.K.K.R.K.R.F.K.G.F.K.K.K.G.G.F.T.P.F.V.K.K.F.V.[am]}$$$$V2.0”, for which the “final HPLC purity” value is recorded as no less than 99% and the isolated yield was 22%. In addition, the isolated mass (23 x TFA salt) is 9.60 mg.
Regarding “PEPTIDE1{M.R.R.K.T.P.V.K.W.K.T.F.F.K.A.L.K.H.K.K.K.I.F.K.K.T.F.E.K.F.K.F.L.A.K.G.P.A.F.L.K.G.F.D.Q.K.L.K.S.[am]}$$$$V2.0”, the “final HPLC purity” value is on record as greater than 90% and the isolated yield came out at 22%. Where the note is “20 x TFA salt”, the isolated mass amounted to 9.27 mg.
On to “H-MWFDRKKFFWPGVCLFLLFFPKRFYKKGPEKVFSFRKKYKFARKCKCKL-NH2 (cysteine pairing not given here)”, for which the “final HPLC purity” value worked out at 86% and the isolated yield is given as 9%. The isolated mass (17 x TFA salt) was determined as 3.64 mg.
As for “PEPTIDE1{M.K.K.L.F.K.K.I.L.K.Y.L.[am]}$$$$V2.0”, the “final HPLC purity” value amounted to 97% and the isolated yield was 36%. In addition, the isolated mass (6 x TFA salt) was 4.03 mg.
As for “H-MSTRSSSIRRLVEAVRTRFRAALRTVLFFALRTTKRRPRR-NH2”, the “final HPLC purity” value amounted to 84% and the isolated yield was 6%. Moreover, for the setting “14 x TFA salt”, the isolated mass was found to be 2.01 mg.
Turning to “H-MCFCRYRFFYRRRIRFFKWGPYFYVWFGFPFGRKAFFLSVFRRRFC-NH2 (cysteine pairing not given here)”, the “final HPLC purity” value is listed as greater than 90% and the isolated yield is on record as 6%. Further, the isolated mass (13 x TFA salt) was 2.24 mg.
As to “PEPTIDE1{M.N.T.T.S.N.M.I.H.R.A.V.Q.Q.K.R.I.S.F.R.A.A.K.L.T.V.L.F.L.F.K.R.R.L.L.R.R.L.L.R.H.H.E.N.[am]}$$$$V2.0”, the “final HPLC purity” value is no less than 99% and the isolated yield is given as 11%. In addition, the isolated mass (15 x TFA salt) is on record as 4.03 mg.
Consider “PEPTIDE1{M.G.W.W.F.P.P.K.T.G.N.G.A.G.K.A.F.K.K.A.A.A.A.K.W.G.G.L.F.L.K.A.A.W.F.A.N.K.G.E.W.G.G.G.F.P.K.G.Y.[am]}$$$$V2.0”, for which the “final HPLC purity” value was 75% and the isolated yield is on record as 17%. Besides, the isolated mass (9 x TFA salt) came out at 5.27 mg.
Take “H-MKWKVFKKIEKMGRNIRNGIVKAGPAIAVLGEAKAL-NH2”: the “final HPLC purity” value is on record as 97% and the isolated yield is 9%. The isolated mass (10 x TFA salt) worked out at 2.29 mg.
In the case of “PEPTIDE1{M.K.K.K.K.K.G.I.L.K.Q.N.N.K.K.K.K.Y.T.L.F.N.R.M.V.V.F.L.F.L.G.F.I.M.I.I.F.V.Q.K.Y.K.K.V.I.Y.H.K.[am]}$$$$V2.0”, the “final HPLC purity” value is on record as no less than 99% and the isolated yield is reported as 12%. Also, the isolated mass (17 x TFA salt) is 4.80 mg.
As to “H-MKEKKFFFFCFKKRRGFYKRRFFCKTTCFTYCFYKPRGTKTMPYVFSE-NH2 (cysteine pairing not given here)”, the “final HPLC purity” value is listed as no less than 89% and the isolated yield is on record as 8%. Further, the isolated mass (15 x TFA salt) stood at 3.24 mg.
Take “PEPTIDE1{M.K.L.R.R.R.L.R.T.R.M.V.A.L.L.V.L.G.V.L.F.L.L.M.L.F.F.I.I.F.L.R.R.M.L.M.R.R.F.R.A.[am]}$$$$V2.0”: the “final HPLC purity” value amounted to 96% and the isolated yield stood at 13%. The isolated mass (12 x TFA salt) turned out to be 4.25 mg.
Regarding “H-MRGRPPKRIRSVIIAQTTTATAKKIVIVLLLIFSSSKRRR-NH2”, the “final HPLC purity” value is given as greater than 85% and the isolated yield was determined as 1%. Besides, under “12 x TFA salt”, the isolated mass was 0.35 mg.
Take “H-MWLKMRKCCGCGFKYCLKCVQKKGRIFKTLGKAKMWPKWFFKIGGKC-NH2 (cysteine pairing not given here)”: the “final HPLC purity” value is reported as greater than 83% and the isolated yield stood at 9%. Further, the isolated mass (15 x TFA salt) stood at 3.49 mg.
With “PEPTIDE1{M.G.I.G.K.F.Q.K.M.R.F.I.G.A.I.R.A.S.K.G.V.A.K.G.L.L.R.I.A.A.I.R.T.G.R.R.A.L.T.T.[am]}$$$$V2.0”, the “final HPLC purity” value is given as greater than 68% and the isolated yield was found to be 9%. Besides, the isolated mass (11 x TFA salt) came to 2.50 mg.
